Laboratory results: patent US20250346673A1
Positions count from the first letter of the chain named. Results are given in words; binding and its absence hold for the method and conditions named. Some entries that bind do so weakly or less than the wild type. One block for each binder: values may come before it.

By UniProt entry, the sequences of proteins in these tests, tags left out. Residues count along the entry.
UniProt Q8WTT0, residues 45-213: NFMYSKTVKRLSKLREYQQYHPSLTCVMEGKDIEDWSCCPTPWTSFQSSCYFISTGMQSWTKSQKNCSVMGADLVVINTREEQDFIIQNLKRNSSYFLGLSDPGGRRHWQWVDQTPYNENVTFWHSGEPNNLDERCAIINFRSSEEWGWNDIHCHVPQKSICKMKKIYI

Target: Recombinant Human BDCA2 (human) (UniProt Q8WTT0)
Assay: SPR

binding: binds
B1: Hu033-02 (antibody, IgG1, V domains shown)
VH: EVQLVESGGGLVKPGGSLRLSCAASGFTFSSYGMSWVRQAPGKGLEWVSTISSGDSYTYYPDSVKGRFTISRDNAKNSLYLQMNSLRAEDTAVYYCARQIYYDYAYYFDFWGQGTTVTVSS
VL: DIVLTQSPASLAVSPGQRATITCRASESVSFRTSHLMHWYQQKPGQPPKLLIYGASNLESGVPARFSGSGSETDFTLTINPVEAEDTANYYCQQSIEDPPTFGGGTKVEIK

binding: binds
B2: Hu033-04 (antibody, IgG1, V domains shown)
VH: B1 VH
VL: DIVMTQSPDSLAVSLGERATINCRASESVSFRTSHLMHWYQQKPGQPPKLLIYGASNLESGVPDRFSGSGSGTDFTLTISSLQAEDVAVYYCQQSIEDPPTFGGGTKVEIK

binding: binds
B3: Hu033-15 (antibody, IgG1, V domains shown)
VH: B1 VH with S30R, G44R
VL: EIVLTQSPATLSLSPGERATLSCRASESVSFRTSHLMHWYQQKPGQAPRLLIYGASNLESGIPARFSGSGSGTDFTLTISRLEPEDFAVYYCQQSIEDPPTFGGGTKVEIK

binding: binds
B4: Hu033-12 (antibody, IgG1, V domains shown)
VH: B1 VH with S30R, G44R
VL: B2 VL

binding: binds
B5: Hu033-06 (antibody, IgG1, V domains shown)
VH: B1 VH
VL: B2 VL with M4L, G72E, S81P, Y91F

binding: binds
B6: Hu033-10 (antibody, IgG1, V domains shown)
VH: B1 VH with S30R, G44R
VL: B1 VL

binding: binds
B7: Hu033-23 (antibody, IgG1, V domains shown)
VH: B1 VH with S30R, G44R, R87K
VL: B3 VL

binding: binds
B8: Hu033-16 (antibody, IgG1, V domains shown)
VH: B1 VH with S30R, G44R
VL: B3 VL with G72E, Y91F

binding: binds
B9: Hu033-13 (antibody, IgG1, V domains shown)
VH: B1 VH with S30R, G44R
VL: B2 VL with M4L, Y91F

binding: binds
B10: Hu033-08 (antibody, IgG1, V domains shown)
VH: B1 VH
VL: B3 VL with G72E, Y91F
